# According to the supplement of paper PMC8728848:
# The list shows a part of the results.
# B1: PX14351B-bth-512-36-512 (Bacteroides thetaiotaomicron) (protein)
# chain: ASETQQWKTLEDTRSALMGVYGLTRAALADNNTHWICGDLRKGDFTVYKRSDLQAVSDNELNKPYDLLKKVSNWRRFYAVINAASVFMEKAPRTVELDRSYSEQNLKYDIAQVRALRAFAYFYMVRIWGDVPLVTYSYDNGTFPSMPRTDAQTVLSYAKAELLTAIEDLPYQYGTQTNLYYGSYGAQWQGKLFNKLSAYSVLAHICAWQGNYAEAETYSAFIIDHASEINAKYTSIADLTSETGLFYSNASVKGSRILGFNFAHNDNEATQSGHLEQLTLAYPLVQKSYPEIYISKDSLFSIFTNFDDLRFGIIDTIKYSSYYVQNLNEETPVFSKIKIIQDGSAKDNDFGVFGSSIVFTRLEDITLLRAEALCALNRSTEAVSYLNMIRTNRGLREVSFKKDFGNNRESLIAEIFEERRRELMGEGWRWYDLVRRQKLMKDNEAFLRLISSGGIYWPVSEDIITANSQIEQNEFWK
# Legend:
# Test in all cases: glycan array binding signal (z-score within array); higher = stronger binding
# Conditions in all cases: glycan notation: IUPAC condensed, linker removed
# [1] = target: Gal(b1-4)GlcNAc(b1-3)Gal(b1-4)[Fuc(a1-3)]GlcNAc(b1-3)Gal(b1-4)[Fuc(a1-3)]GlcNAc
# In short: (§1)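 The binding signal is a Z-score computed within each array and averaged over linkers. Arrays of the same protein sequence at different concentrations or buffers were also averaged together. Data originate from 3228 arrays in the Consortium for Functional Glycomics database, kept only where the protein sequence was available.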
# [2] = target: Gal(b1-4)GlcNAc(b1-3)[Fuc(a1-3)GlcNAc(b1-6)]Gal(b1-4)Glc
# In short: as §1
# [3] = target: Gal(b1-4)GlcNAc(b1-3)[Gal(b1-4)GlcNAc(b1-6)]Gal(b1-4)GlcNAc
# In short: as §1
# [4] = target: Gal(b1-4)GlcNAc(b1-3)[GlcNAc(b1-6)]Gal(b1-4)GlcNAc
# In short: as §1
# [5] = target: Gal(b1-4)GlcNAc(b1-6)Gal(b1-4)GlcNAc
# In short: as §1
# [6] = target: Gal(b1-4)GlcNAc(b1-6)GalNAc
# In short: as §1
# [7] = target: Gal(b1-4)GlcNAc(b1-6)[Gal(b1-3)]GalNAc
# In short: as §1
# Gal(b1-4)GlcNAc6P = target: Gal(b1-4)GlcNAc6P
# In short: as §1
# Gal(b1-6)Gal = target: Gal(b1-6)Gal
# In short: as §1
# Gal3S(b1-3)GalNAc = target: Gal3S(b1-3)GalNAc
# In short: as §1
# Gal3S(b1-3)GlcNAc = target: Gal3S(b1-3)GlcNAc
# In short: as §1
# [8] = target: Gal3S(b1-3)[Fuc(a1-4)]GlcNAc
# In short: as §1
# Gal3S(b1-4)Glc6S = target: Gal3S(b1-4)Glc6S
# In short: as §1
# Gal3S(b1-4)GlcNAc = target: Gal3S(b1-4)GlcNAc
# In short: as §1
# [9] = target: Gal3S(b1-4)[Fuc(a1-3)]Glc6S
# In short: as §1
# [10] = target: Gal3S(b1-4)[Fuc(a1-3)]GlcNAc
# In short: as §1
# [11] = target: Gal3S(b1-4)[Fuc(a1-3)]GlcNAc6S
# In short: as §1
# Gal3S4S(b1-4)GlcNAc = target: Gal3S4S(b1-4)GlcNAc
# In short: as §1
# Gal3S6S(b1-4)GlcNAc = target: Gal3S6S(b1-4)GlcNAc
# In short: as §1
# Gal3S6S(b1-4)GlcNAc6S = target: Gal3S6S(b1-4)GlcNAc6S
# In short: as §1
# Gal4S(b1-4)GlcNAc = target: Gal4S(b1-4)GlcNAc
# In short: as §1
# Gal4S6S(b1-4)GlcNAc = target: Gal4S6S(b1-4)GlcNAc
# In short: as §1
# Gal6P(b1-4)GlcNAc = target: Gal6P(b1-4)GlcNAc
# In short: as §1
# Gal6S(b1-3)GlcNAc = target: Gal6S(b1-3)GlcNAc
# In short: as §1
# Gal6S(b1-3)GlcNAc6S = target: Gal6S(b1-3)GlcNAc6S
# In short: as §1
# Gal6S(b1-4)Glc = target: Gal6S(b1-4)Glc
# In short: as §1
# Gal6S(b1-4)Glc6S = target: Gal6S(b1-4)Glc6S
# In short: as §1
# Gal6S(b1-4)GlcNAc = target: Gal6S(b1-4)GlcNAc
# In short: as §1
# GalNAc(a1-3)Gal = target: GalNAc(a1-3)Gal
# In short: as §1
# GalNAc(a1-3)GalNAc = target: GalNAc(a1-3)GalNAc
# In short: as §1
# [12] = target: GalNAc(a1-3)GalNAc(b1-3)Gal(a1-4)Gal(b1-4)Glc
# In short: as §1
# [13] = target: GalNAc(a1-3)GalNAc(b1-3)Gal(a1-4)Gal(b1-4)GlcNAc
# In short: as §1
# GalNAc(b1-3)Gal = target: GalNAc(b1-3)Gal
# In short: as §1
# [14] = target: GalNAc(b1-3)Gal(a1-4)Gal(b1-4)GlcNAc
# In short: as §1
# [15] = target: GalNAc(b1-3)Gal(a1-4)Gal(b1-4)GlcNAc(b1-3)Gal(b1-4)Glc
# In short: as §1
# [16] = target: GalNAc(b1-3)Gal(a1-6)Gal(b1-4)Glc
# In short: as §1
# GalNAc(b1-3)GalNAc = target: GalNAc(b1-3)GalNAc
# In short: as §1
# GalNAc(b1-3)GlcNAc = target: GalNAc(b1-3)GlcNAc
# In short: as §1
binder,measurement,setting,value
B1,glycan array binding signal (z-score),[1],-0.093
same,glycan array binding signal (z-score),[2],-0.291
same,glycan array binding signal (z-score),[3],0.262
same,glycan array binding signal (z-score),[4],-0.242
same,glycan array binding signal (z-score),[5],-0.218
same,glycan array binding signal (z-score),[6],0.363
same,glycan array binding signal (z-score),[7],-0.306
same,glycan array binding signal (z-score),Gal(b1-4)GlcNAc6P,-0.321
same,glycan array binding signal (z-score),Gal(b1-6)Gal,-0.237
same,glycan array binding signal (z-score),Gal3S(b1-3)GalNAc,-0.216
same,glycan array binding signal (z-score),Gal3S(b1-3)GlcNAc,-0.034
same,glycan array binding signal (z-score),[8],0.222
same,glycan array binding signal (z-score),Gal3S(b1-4)Glc6S,-0.305
same,glycan array binding signal (z-score),Gal3S(b1-4)GlcNAc,0.002
same,glycan array binding signal (z-score),[9],-0.265
same,glycan array binding signal (z-score),[10],-0.025
same,glycan array binding signal (z-score),[11],-0.168
same,glycan array binding signal (z-score),Gal3S4S(b1-4)GlcNAc,0.128
same,glycan array binding signal (z-score),Gal3S6S(b1-4)GlcNAc,0.221
same,glycan array binding signal (z-score),Gal3S6S(b1-4)GlcNAc6S,-0.391
same,glycan array binding signal (z-score),Gal4S(b1-4)GlcNAc,-0.256
same,glycan array binding signal (z-score),Gal4S6S(b1-4)GlcNAc,-0.338
same,glycan array binding signal (z-score),Gal6P(b1-4)GlcNAc,-0.297
same,glycan array binding signal (z-score),Gal6S(b1-3)GlcNAc,-0.276
same,glycan array binding signal (z-score),Gal6S(b1-3)GlcNAc6S,-0.195
same,glycan array binding signal (z-score),Gal6S(b1-4)Glc,0.182
same,glycan array binding signal (z-score),Gal6S(b1-4)Glc6S,0.987
same,glycan array binding signal (z-score),Gal6S(b1-4)GlcNAc,-0.212
same,glycan array binding signal (z-score),GalNAc(a1-3)Gal,0.243
same,glycan array binding signal (z-score),GalNAc(a1-3)GalNAc,-0.236
same,glycan array binding signal (z-score),[12],-0.24
same,glycan array binding signal (z-score),[13],-0.27
same,glycan array binding signal (z-score),GalNAc(b1-3)Gal,-0.237
same,glycan array binding signal (z-score),[14],-0.161
same,glycan array binding signal (z-score),[15],-0.096
same,glycan array binding signal (z-score),[16],-0.324
same,glycan array binding signal (z-score),GalNAc(b1-3)GalNAc,-0.004
same,glycan array binding signal (z-score),GalNAc(b1-3)GlcNAc,-0.256

# Nothing new here: an excerpt of the list.
binder,measurement,setting,value
B1,glycan array binding signal (z-score),Gal6S(b1-4)Glc6S,0.987
same,glycan array binding signal (z-score),Gal6S(b1-4)GlcNAc,-0.212
